{"sequences": {"note": "Chains of the proteins cited; added tags and fusions are not shown. Lines headed by an entry give the natural chain unless they say otherwise; changes in a name come on top.", "UniProt Q18221": "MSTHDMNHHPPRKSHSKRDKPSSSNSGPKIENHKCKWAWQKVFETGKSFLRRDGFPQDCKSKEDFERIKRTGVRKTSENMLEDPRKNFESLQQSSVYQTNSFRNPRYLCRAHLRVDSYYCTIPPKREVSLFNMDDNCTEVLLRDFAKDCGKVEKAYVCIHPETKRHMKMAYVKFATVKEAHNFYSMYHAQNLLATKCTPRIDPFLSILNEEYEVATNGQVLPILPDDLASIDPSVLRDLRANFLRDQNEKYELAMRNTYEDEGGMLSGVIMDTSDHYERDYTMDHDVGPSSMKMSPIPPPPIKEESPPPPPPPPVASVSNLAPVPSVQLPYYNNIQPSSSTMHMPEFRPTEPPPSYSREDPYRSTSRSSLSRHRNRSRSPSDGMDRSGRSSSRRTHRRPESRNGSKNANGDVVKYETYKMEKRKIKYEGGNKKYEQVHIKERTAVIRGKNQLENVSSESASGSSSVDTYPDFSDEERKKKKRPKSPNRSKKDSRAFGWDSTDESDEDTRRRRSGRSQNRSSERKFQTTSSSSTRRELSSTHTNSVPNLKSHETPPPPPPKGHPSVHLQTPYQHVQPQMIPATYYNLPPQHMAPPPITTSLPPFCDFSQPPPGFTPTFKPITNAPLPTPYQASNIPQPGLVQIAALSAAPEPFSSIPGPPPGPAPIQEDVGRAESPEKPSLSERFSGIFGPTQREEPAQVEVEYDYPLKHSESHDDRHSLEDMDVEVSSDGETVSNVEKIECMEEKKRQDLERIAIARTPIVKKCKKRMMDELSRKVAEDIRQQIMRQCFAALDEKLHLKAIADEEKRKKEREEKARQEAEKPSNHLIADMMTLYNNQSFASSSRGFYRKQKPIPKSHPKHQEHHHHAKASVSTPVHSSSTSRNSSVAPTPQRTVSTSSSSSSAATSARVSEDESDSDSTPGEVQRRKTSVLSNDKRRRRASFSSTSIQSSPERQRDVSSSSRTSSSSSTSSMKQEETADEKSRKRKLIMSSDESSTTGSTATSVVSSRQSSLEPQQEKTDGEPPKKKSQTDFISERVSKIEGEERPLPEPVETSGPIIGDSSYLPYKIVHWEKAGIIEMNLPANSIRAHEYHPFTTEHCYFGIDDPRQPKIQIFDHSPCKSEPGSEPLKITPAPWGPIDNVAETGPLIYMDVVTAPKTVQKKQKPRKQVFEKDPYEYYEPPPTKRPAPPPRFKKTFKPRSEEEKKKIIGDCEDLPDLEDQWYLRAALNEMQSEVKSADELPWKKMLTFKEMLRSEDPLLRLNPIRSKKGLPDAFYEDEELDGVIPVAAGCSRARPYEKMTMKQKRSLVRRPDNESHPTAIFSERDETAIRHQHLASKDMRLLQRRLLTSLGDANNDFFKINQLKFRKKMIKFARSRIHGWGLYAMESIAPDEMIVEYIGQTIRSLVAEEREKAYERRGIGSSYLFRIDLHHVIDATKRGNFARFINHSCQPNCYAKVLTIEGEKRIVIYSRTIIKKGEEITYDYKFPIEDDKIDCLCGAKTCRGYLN", "UniProt Q17963": "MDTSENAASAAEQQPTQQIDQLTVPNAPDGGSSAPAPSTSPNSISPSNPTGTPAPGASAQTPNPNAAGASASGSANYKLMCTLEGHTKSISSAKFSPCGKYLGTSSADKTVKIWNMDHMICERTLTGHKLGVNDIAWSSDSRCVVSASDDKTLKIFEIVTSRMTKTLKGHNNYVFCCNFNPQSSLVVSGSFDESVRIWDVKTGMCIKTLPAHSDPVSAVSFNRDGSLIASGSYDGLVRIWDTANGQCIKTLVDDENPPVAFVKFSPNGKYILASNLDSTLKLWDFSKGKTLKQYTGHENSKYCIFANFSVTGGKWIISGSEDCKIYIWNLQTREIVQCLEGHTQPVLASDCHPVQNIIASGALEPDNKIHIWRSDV"}, "source": "paper PMC8675910", "molecules": {"B1": {"name": "ASH-2 (protein, UniProt G5EFZ3 1-570)", "chain": "MRSSKGGRGRQAAPKTAPTTVCYCDGKRELGSVEVVCSTCLKWFHGRCLKEFHELNSNGVPFMICYTFTCKQCRPTAEDWKAKKADLVQMCVTVLATLSAERLKADGKLSAEHVPEDFTYLSLKDEIVPYMNENWYMLTAIKQKKEWHQNLAPTLLKEKNIFVQHNDDDDLFALAEKNLSLLGPLHEAVKLIGKRPIERENREPRHIELPPIEGPKTRGASKRRHAEAPVTGKKQKLAADYSSTAAPNGVQIDIPFSKDNYRYYLTEVDPNVPEDPAWNQNQSSAYVIPSFHYRELLNPTVNVSSNDRAFQLSINGNSITGFEGYSMARASHGVSKGTWYFEVNFDDQPDDSHIRIGWSQSYASLQACVGYNKFSYGWRSKHGTKFHEAKGKKYHFGGFKQGDVLGCLIHLPVDKKLQIPANLPSEKYLPVSHKGFNLISFKANYFFEVQEESADIAKTLVEMPGSYIEFFHNGKSCGKAYENIYAGAYYPSISIFKSATATMNLGPKFRNLPRGATGIHARADEQQHEQTLSDMLYLVSKEVNLDHPPRVKREDDDDVKDIKKEIKQEI"}, "B2": {"name": "RBBP-5 (protein, UniProt Q09309 1-454)", "chain": "MVEILDRTYGAQFPEELECHLDLQNASANCCKFNRWGSIVAVGCTDGRVLIYDFMTRNIARTFSAHCLPVSCLSWSRDGRKLLTSSADNSIAMFDVLAGTLLHRIRFNSMVTFAMFHPRNDNKAIVLQVNKQPTVEQFSPRIQTVLANDTPGSSDESASCVSYDRKGKYIIAGTGKGKLLIYNAETLKCVAWCKQNTVQQIRQIIVPMKSRFIITNTQDRVIRTYELEDLLHQRGQMVEAKYKVLDMVNKAAWKNVCTDSDGLYVCGASTKAHSLYIWESNTGSLIKILHGNKGEALLDVQWHPTRPIILSIAQGTVSMWTQAHVENWSAFAPEFQELEENEKYIEKENEFDMEDEDADEDMTSKSQDAEDDIIDVVNVRPEDYLASSDEEDCNIMKPARNLESGPLWYIPVPLDIENADNDQRLPDDIRNLDNLLNPAWVASAKGYELSPKSK"}}, "note": "No constants are given. Whether binding was seen depends on the method and setting. Binding seen in cells or lysates may run through a third protein. These calls come from enrichment with a bait or labelling near it, and not all partners need be listed. Where a sequence is shown, tags or fusion partners need not be part of it."}
{"target": "T1, GFP::CFP-1 (C. elegans) (UniProt Q9XUE7)", "T1 sequence": "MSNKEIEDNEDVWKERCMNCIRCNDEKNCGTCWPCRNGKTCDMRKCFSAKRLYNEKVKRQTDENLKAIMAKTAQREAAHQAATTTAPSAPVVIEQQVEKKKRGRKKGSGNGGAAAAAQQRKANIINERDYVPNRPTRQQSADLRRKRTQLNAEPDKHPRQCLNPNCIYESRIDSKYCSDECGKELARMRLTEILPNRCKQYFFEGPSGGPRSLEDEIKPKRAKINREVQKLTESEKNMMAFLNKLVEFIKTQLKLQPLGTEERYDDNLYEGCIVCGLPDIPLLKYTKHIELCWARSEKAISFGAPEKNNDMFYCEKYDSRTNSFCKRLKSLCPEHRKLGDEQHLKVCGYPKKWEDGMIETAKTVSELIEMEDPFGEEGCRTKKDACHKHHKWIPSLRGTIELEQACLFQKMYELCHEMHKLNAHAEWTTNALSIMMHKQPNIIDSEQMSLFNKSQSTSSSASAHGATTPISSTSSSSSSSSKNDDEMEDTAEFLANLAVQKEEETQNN", "assay": "affinity purification with mass spectrometry; GFP::CFP-1 immunoprecipitated on GFP-TRAP MA beads from 70 mg total protein extract of C. elegans embryos carrying set-2(syb2085) or set-2(ok952); IP buffer 50 mM HEPES/KOH pH 7.5, 300 mM KCl, 1 mM EDTA, 1 mM MgCl2, 0.2% Igepal-CA630, 10% glycerol; 4°C; benzonase treatment on the beads; control: WT animals without the GFP::CFP-1 allele"}
{"molecule": "SET-2 H1447K, catalytically inactive, encoded by set-2(syb2085) (from UniProt Q18221 1-1507) (enzyme)", "binding": "binds"}
{"molecule": "WDR-5.1 (from UniProt Q17963 1-376)", "binding": "binds"}
{"molecule": "SWD-2.1 (C. elegans (endogenous in embryos))", "binding": "binds"}
{"molecule": "B1", "binding": "binds"}
{"molecule": "B2", "binding": "binds"}
